Assay results: publication PMC9843824 (Neuropharmacology, 2022)

How the values were obtained:
physchem = assay type: physicochemical
in vitro = in vitro ADME; conditions: rat, plasma
[1] = rat, in vivo; cited from earlier work

logP (physchem): 3.95 | fraction unbound (in vitro): 0.02
Structure (SMILES): Nc1nc2ccc(OC(F)(F)F)cc2s1 [Riluzole, reference compound]
Brain:plasma ratio [1]: 1
